Results are given in words; binding and its absence hold for the method and conditions named. In cells and extracts the contact can be indirect. Here binding means that the protein was enriched with, or labelled near, the bait; the list need not be complete.
Biological target: HA-G3BP1 (HA-tagged human Ras GTPase-activating protein-binding protein 1) (human) (UniProt Q13283)
Test: affinity purification with mass spectrometry; HA-G3BP1 complex obtained by co-IP with anti-HA antibody from UMUC3 cells stably expressing HA-G3BP1; SDS-PAGE, silver stain, trypsin digestion, nano-LC-MS/MS

Sequences of proteins named here, by UniProt entry; tags and fusion partners are left off.
UniProt Q13283: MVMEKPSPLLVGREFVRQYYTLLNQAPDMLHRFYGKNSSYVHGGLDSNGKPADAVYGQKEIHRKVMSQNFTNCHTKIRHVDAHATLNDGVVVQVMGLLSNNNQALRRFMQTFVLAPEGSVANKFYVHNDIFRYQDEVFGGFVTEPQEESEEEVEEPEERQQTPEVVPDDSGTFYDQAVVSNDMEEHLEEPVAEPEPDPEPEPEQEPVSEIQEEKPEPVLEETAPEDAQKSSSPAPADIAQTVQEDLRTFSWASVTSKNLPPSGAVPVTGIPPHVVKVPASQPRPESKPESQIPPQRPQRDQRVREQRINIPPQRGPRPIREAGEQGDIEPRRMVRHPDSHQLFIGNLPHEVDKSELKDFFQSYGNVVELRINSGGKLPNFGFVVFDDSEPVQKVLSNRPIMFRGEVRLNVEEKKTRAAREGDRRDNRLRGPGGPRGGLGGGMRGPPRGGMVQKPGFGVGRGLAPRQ

binding: binds
B1: endogenous SLU7 (protein, UniProt O95391 1-586)
chain: MSATVVDAVNAAPLSGSKEMSLEEPKKMTREDWRKKKELEEQRKLGNAPAEVDEEGKDINPHIPQYISSVPWYIDPSKRPTLKHQRPQPEKQKQFSSSGEWYKRGVKENSIITKYRKGACENCGAMTHKKKDCFERPRRVGAKFTGTNIAPDEHVQPQLMFDYDGKRDRWNGYNPEEHMKIVEEYAKVDLAKRTLKAQKLQEELASGKLVEQANSPKHQWGEEEPNSQMEKDHNSEDEDEDKYADDIDMPGQNFDSKRRITVRNLRIREDIAKYLRNLDPNSAYYDPKTRAMRENPYANAGKNPDEVSYAGDNFVRYTGDTISMAQTQLFAWEAYDKGSEVHLQADPTKLELLYKSFKVKKEDFKEQQKESILEKYGGQEHLDAPPAELLLAQTEDYVEYSRHGTVIKGQERAVACSKYEEDVKIHNHTHIWGSYWKEGRWGYKCCHSFFKYSYCTGEAGKEIVNSEECIINEITGEESVKKPQTLMELHQEKLKEEKKKKKKKKKKHRKSSSDSDDEEKKHEKLKKALNAEEARLLHVKETMQIDERKRPYNSMYETREPTEEEMEAYRMKRQRPDDPMASFLGQ

Source: article PMC10870071
